Measurements from publication PMC5962775.
These are yes or no findings as the source states them, for the method shown. Binding seen in cells or lysates may run through a third protein. Some entries that bind do so weakly or less than the wild type.

Amino acid sequences for entries named in this document (tags omitted).
UniProt P69513: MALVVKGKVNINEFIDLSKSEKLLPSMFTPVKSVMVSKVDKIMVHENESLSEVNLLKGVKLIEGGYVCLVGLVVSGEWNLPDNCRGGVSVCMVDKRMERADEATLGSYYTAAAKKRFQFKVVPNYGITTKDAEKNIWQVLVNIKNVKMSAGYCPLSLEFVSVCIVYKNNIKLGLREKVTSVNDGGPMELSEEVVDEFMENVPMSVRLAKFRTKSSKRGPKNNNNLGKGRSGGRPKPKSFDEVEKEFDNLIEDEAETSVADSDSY

Target: Tomato mosaic virus 30-kDa movement protein (Tomato mosaic virus) (UniProt P69513)
Assay: split reporter; BiFC with N-terminal (nV) and C-terminal (cV) fragments of Venus fused to the C-terminal end of the target proteins (pGWnV3 and pGWcV plasmids); N. benthamiana leaves bombarded, Venus fluorescence seen at 24 h post-bombardment by confocal laser microscopy; MP-nV + MP-cV and 126K-nV + 126K-cV also co-expressed with NtREM-DsRed; some samples stained with aniline blue

Tomato mosaic virus 30-kDa movement protein (from UniProt P69513 1-264)
binding: binds
